Measured values reported in the supplement of paper PMC6411743.
± gives the standard deviation of the averaged measurements. Only a part is listed here, and it is no random draw.

Amino acid sequences for entries named in this document (tags omitted). A change or cut given only in a name is not applied to a line headed by its entry.
UniProt Q9UPQ9, whole entry: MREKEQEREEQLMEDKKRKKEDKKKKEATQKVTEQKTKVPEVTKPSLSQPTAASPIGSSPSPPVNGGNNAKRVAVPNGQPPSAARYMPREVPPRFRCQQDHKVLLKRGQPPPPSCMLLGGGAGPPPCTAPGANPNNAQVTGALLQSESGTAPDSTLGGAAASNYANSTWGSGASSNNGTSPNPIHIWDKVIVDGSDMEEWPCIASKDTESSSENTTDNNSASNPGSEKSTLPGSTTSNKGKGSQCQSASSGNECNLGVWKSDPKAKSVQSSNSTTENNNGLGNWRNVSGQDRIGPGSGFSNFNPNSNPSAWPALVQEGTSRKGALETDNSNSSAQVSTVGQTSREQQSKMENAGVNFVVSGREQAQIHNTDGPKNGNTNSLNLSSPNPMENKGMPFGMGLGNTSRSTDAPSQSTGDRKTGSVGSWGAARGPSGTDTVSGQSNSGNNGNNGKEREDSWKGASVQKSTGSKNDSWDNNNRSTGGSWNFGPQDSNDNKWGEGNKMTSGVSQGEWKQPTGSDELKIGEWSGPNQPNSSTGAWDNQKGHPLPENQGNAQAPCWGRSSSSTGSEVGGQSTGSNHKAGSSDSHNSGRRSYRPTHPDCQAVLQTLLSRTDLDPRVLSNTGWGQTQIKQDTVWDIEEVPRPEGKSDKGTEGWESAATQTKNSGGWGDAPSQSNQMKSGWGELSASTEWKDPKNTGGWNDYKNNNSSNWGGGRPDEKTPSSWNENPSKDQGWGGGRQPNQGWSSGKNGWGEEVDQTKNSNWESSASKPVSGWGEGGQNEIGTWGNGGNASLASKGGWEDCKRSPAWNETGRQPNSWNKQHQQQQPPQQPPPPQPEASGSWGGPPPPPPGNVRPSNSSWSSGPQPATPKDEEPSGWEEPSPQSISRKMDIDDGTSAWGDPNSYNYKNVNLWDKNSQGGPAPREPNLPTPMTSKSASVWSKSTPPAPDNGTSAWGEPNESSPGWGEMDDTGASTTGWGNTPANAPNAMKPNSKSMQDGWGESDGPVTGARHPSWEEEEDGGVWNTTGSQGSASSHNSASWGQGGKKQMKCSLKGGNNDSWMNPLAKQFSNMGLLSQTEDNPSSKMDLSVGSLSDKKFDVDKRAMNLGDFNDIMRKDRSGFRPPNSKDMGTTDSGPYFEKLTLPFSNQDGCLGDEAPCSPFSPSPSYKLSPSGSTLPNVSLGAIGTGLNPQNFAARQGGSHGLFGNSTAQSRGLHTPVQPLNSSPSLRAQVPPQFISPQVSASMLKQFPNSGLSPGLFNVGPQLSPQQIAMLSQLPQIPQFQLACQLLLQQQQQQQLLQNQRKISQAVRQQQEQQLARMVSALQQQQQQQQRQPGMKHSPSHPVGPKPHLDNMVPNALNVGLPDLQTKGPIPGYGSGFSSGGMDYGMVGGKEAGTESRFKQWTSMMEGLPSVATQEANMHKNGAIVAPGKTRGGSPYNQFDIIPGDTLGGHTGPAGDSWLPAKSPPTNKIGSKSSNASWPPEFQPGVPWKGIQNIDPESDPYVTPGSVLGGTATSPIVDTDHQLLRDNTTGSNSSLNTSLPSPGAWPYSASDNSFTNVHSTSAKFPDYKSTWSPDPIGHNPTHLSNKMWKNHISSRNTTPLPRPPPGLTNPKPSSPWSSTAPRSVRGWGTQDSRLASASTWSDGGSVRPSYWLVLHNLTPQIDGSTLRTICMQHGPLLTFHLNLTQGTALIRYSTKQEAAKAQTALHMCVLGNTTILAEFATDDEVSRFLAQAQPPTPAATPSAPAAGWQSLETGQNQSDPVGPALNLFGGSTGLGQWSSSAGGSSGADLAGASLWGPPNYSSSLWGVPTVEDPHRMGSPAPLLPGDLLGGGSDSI
UniProt Q9UK61: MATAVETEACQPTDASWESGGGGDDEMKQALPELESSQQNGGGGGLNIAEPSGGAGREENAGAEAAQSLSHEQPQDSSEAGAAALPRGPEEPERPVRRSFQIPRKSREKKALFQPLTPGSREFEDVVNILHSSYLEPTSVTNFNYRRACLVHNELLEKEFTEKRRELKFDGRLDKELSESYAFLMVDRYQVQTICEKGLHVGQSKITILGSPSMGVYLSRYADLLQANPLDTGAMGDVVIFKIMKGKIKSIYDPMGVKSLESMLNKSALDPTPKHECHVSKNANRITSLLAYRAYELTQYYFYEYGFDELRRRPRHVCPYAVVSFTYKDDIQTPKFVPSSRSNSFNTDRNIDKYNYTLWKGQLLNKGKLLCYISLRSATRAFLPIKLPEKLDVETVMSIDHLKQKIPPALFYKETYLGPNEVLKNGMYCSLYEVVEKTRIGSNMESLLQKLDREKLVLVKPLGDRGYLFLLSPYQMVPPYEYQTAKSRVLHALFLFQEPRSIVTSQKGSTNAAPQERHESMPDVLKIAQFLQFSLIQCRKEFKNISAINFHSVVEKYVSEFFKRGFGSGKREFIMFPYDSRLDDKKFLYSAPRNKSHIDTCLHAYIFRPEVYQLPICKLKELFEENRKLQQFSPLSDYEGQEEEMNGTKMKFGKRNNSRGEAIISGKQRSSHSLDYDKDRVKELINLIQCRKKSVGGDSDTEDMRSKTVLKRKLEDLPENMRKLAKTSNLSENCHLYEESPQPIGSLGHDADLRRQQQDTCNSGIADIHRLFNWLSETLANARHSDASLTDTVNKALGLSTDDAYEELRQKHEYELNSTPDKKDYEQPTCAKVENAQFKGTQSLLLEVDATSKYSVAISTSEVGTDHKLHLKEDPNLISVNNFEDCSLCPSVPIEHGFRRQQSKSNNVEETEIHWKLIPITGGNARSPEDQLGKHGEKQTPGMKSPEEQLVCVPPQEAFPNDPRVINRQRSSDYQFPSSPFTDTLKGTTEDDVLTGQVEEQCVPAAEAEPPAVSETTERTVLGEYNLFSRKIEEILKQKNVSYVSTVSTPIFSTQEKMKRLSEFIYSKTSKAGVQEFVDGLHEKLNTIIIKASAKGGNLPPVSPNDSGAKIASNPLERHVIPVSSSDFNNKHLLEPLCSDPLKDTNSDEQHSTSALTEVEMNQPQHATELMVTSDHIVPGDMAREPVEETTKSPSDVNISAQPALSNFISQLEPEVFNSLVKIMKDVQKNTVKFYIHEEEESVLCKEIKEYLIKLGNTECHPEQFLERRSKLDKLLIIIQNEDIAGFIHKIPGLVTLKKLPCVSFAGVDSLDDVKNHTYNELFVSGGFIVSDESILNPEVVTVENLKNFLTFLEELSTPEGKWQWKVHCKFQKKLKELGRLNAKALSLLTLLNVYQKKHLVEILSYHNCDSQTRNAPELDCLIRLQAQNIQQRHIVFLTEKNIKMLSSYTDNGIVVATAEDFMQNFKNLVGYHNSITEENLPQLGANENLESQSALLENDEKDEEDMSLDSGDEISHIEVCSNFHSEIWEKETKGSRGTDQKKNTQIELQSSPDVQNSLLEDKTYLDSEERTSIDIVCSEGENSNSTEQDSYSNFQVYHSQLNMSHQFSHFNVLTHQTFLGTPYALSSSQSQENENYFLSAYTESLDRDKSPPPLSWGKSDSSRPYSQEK
UniProt Q9ULC4: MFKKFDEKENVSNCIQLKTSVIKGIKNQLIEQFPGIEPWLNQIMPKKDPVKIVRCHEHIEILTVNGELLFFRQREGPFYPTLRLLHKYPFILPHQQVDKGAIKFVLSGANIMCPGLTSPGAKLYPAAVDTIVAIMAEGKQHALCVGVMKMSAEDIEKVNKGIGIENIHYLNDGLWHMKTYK
UniProt Q9UPT9: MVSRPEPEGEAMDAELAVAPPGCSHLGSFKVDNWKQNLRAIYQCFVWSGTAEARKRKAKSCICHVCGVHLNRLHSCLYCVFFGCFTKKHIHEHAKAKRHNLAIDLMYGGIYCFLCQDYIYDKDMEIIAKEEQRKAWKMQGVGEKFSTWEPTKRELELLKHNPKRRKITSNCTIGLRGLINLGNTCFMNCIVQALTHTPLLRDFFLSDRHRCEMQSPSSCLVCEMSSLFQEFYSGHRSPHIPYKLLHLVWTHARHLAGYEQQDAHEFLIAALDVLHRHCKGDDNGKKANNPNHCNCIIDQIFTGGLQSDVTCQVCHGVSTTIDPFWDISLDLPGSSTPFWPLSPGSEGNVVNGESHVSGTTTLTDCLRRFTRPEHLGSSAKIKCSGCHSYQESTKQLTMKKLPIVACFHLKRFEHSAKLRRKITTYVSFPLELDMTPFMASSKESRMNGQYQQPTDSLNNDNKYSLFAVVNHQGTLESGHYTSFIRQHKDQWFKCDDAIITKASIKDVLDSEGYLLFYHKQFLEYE
UniProt Q9UHD8: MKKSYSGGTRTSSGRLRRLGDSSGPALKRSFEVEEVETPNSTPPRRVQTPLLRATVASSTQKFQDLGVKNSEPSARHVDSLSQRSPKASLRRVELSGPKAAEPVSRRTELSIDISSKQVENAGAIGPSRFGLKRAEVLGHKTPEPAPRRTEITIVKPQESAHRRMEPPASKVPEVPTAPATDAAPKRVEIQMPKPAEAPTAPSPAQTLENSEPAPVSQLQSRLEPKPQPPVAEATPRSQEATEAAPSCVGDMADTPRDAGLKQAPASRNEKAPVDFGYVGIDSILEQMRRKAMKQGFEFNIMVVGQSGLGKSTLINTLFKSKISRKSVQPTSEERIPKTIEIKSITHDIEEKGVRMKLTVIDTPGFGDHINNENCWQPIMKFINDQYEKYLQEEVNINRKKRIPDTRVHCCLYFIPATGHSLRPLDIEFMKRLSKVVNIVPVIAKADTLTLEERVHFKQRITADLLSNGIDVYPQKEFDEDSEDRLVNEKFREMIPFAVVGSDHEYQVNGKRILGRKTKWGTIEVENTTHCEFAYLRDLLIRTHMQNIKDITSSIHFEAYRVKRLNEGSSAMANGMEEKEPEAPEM
UniProt Q9Y2V2: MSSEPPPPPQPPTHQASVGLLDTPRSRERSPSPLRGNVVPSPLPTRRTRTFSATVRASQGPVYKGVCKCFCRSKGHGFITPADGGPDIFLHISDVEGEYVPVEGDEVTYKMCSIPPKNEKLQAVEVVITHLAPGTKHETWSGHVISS
UniProt Q9UBW8: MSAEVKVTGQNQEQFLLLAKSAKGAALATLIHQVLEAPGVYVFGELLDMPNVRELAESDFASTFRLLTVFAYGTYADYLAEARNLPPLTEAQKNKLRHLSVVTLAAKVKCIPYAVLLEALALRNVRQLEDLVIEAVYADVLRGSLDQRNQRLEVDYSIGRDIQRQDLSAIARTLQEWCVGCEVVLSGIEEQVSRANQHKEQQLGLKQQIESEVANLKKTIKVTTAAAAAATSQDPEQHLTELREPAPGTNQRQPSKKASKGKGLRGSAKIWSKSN
UniProt Q9UKY1: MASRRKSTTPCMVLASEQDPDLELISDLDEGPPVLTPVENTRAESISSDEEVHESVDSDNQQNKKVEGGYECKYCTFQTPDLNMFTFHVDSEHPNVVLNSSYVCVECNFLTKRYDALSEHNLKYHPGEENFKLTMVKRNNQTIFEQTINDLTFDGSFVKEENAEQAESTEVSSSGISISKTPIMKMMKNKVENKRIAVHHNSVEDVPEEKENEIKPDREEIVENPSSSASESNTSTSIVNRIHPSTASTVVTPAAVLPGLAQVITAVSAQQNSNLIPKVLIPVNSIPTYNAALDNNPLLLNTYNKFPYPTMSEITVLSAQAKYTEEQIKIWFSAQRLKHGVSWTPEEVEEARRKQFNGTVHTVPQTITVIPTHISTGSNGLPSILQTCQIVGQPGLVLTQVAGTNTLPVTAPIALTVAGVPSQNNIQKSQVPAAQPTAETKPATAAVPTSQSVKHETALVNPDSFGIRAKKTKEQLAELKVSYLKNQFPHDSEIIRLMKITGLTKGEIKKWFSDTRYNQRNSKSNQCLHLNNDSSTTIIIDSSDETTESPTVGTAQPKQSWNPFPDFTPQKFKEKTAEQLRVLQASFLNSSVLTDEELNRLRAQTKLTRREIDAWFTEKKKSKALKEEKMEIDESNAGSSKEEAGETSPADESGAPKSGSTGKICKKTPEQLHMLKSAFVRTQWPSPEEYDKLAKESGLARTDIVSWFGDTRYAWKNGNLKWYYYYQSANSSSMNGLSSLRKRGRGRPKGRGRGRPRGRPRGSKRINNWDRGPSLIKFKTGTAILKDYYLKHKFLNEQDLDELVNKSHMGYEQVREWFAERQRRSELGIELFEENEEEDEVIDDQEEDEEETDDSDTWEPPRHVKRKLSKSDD
UniProt Q9Y3A6: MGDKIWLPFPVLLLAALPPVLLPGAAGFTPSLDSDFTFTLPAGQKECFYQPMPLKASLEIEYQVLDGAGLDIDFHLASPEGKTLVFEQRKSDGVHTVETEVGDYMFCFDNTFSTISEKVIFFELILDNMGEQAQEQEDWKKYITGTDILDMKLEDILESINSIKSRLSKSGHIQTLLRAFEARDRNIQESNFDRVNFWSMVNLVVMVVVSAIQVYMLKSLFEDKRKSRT
UniProt Q9Y3C8: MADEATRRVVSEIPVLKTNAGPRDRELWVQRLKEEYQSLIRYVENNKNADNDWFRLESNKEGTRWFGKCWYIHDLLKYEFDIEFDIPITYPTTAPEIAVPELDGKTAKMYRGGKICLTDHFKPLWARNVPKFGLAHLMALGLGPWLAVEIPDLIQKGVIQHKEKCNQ

Compound: Nc1ncnc2c1ncn2[C@@H]1O[C@H](COP(=O)(O)OP(=O)(O)NP(=O)(O)O)[C@@H](O)[C@H]1O [adenylyl imidodiphosphate]
Assay: NP40-soluble protein abundance relative to vehicle (solubility fold change) (ratio); higher = more soluble protein in presence of AMP-PNP
Procedure, shortened: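 In three independent experiments, Jurkat crude lysate made by Dounce homogenisation was treated for 10 min at room temperature and then 3 min at 37 °C with eight concentrations ranging from 0.1 to 10 mM. It was then solubilised with 0.8% NP40 plus benzonase for 60 min at 4 °C and ultracentrifuged. The supernatant was TMT-labelled for LC-MS/MS, and each value is the fold change against the detergent-processed vehicle for the same replicate, using vsn-normalised intensities.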

Target	NP40-soluble protein abundance (concentration: 1mM)	NP40-soluble protein abundance (concentration: 2mM)	NP40-soluble protein abundance (concentration: 4mM)	NP40-soluble protein abundance (concentration: 6mM)	NP40-soluble protein abundance (concentration: 8mM)	NP40-soluble protein abundance (concentration: 10mM)
UniProt Q9UPQ9-1|Q9UPQ9 and related entries	1.02 ± 0.036	1.07 ± 0.035	1.04 ± 0.024	1.02 ± 0.032	0.984 ± 0.024	1.03 ± 0.025
UniProt Q9UK58 and related entries	0.9854 ± 0.0082	0.996 ± 0.029	0.97 ± 0.013	1.05 ± 0.086	0.995 ± 0.089	1.1 ± 0.046
SUGT1 (UniProt Q9Y2Z0)	1.008 ± 0.0067	1.01 ± 0.0087	0.955 ± 0.014	1.01 ± 0.022	0.983 ± 0.032	0.963 ± 0.044
MED13 (UniProt Q9UHV7)	0.983 ± 0.019	0.99 ± 0.029	1.02 ± 0.021	1.08 ± 0.1	1.07 ± 0.13	1.03 ± 0.05
UniProt Q9UK61 and related entries	1.02 ± 0.021	1.016 ± 0.008	1.04 ± 0.018	1.01 ± 0.067	1.02 ± 0.064	1.05 ± 0.075
MAGED2 (UniProt Q9UNF1)	1.02 ± 0.032	1.04 ± 0.051	0.989 ± 0.011	0.952 ± 0.031	0.938 ± 0.015	0.936 ± 0.013
YBX2 (UniProt Q9Y2T7)	1.02 ± 0.029	1.06 ± 0.013	1.02 ± 0.018	1.01 ± 0.029	1.01 ± 0.036	1.038 ± 0.0094
CYB5R1 (UniProt Q9UHQ9)	0.99 ± 0.05	0.899 ± 0.084	1 ± 0.048	0.992 ± 0.075	1.05 ± 0.063	0.972 ± 0.044
SPG7 (UniProt Q9UQ90)	0.9564 ± 0.0073	0.912 ± 0.042	0.939 ± 0.029	0.966 ± 0.013	0.9696 ± 0.0085	0.9492 ± 0.0031
UniProt Q9ULH0 and related entries	0.996 ± 0.012	1.01 ± 0.046	1.03 ± 0.039	0.989 ± 0.041	0.993 ± 0.016	0.995 ± 0.053
CNOT7 (UniProt Q9UIV1)	0.99 ± 0.015	0.958 ± 0.031	0.995 ± 0.031	1 ± 0.039	1.03 ± 0.045	0.995 ± 0.052
LRWD1 (UniProt Q9UFC0)	1.01 ± 0.013	1 ± 0.024	1.02 ± 0.022	0.979 ± 0.024	0.977 ± 0.018	0.958 ± 0.022
UniProt Q9Y2L9 and related entries	1.02 ± 0.023	0.982 ± 0.019	1 ± 0.014	0.995 ± 0.015	0.9961 ± 0.0029	0.9858 ± 0.0035
UniProt Q9UKM9 and related entries	0.912 ± 0.053	0.922 ± 0.035	0.882 ± 0.08	0.935 ± 0.03	0.889 ± 0.039	0.937 ± 0.11
UniProt Q9UPN6 and related entries	1.03 ± 0.016	1.09 ± 0.06	1.09 ± 0.038	1.08 ± 0.025	1.08 ± 0.046	1.08 ± 0.028
APPL1 (UniProt Q9UKG1)	1 ± 0.012	0.969 ± 0.051	1.01 ± 0.011	0.99 ± 0.011	0.986 ± 0.029	0.977 ± 0.013
CDC23 (UniProt Q9UJX2)	0.996 ± 0.044	0.988 ± 0.052	1.03 ± 0.069	1.02 ± 0.016	1.04 ± 0.096	1.04 ± 0.12
UniProt Q9UK76	1.08 ± 0.088	1.1 ± 0.08	1.03 ± 0.067	0.982 ± 0.092	0.893 ± 0.037	0.973 ± 0.1
SRRM2 (UniProt Q9UQ35)	1.08 ± 0.035	1.13 ± 0.074	1.1 ± 0.021	1.05 ± 0.08	1.03 ± 0.042	1.09 ± 0.044
UniProt Q9ULJ7 and related entries	0.925 ± 0.083	0.866 ± 0.015	0.919 ± 0.049	0.923 ± 0.082	0.943 ± 0.077	0.859 ± 0.069

12 entries from above, as comma-separated lines.
Target,NP40-soluble protein abundance (concentration: 1mM),NP40-soluble protein abundance (concentration: 2mM),NP40-soluble protein abundance (concentration: 4mM),NP40-soluble protein abundance (concentration: 6mM),NP40-soluble protein abundance (concentration: 8mM),NP40-soluble protein abundance (concentration: 10mM)
UniProt Q9UPQ9-1|Q9UPQ9 and related entries,1.02 ± 0.036,1.07 ± 0.035,1.04 ± 0.024,1.02 ± 0.032,0.984 ± 0.024,1.03 ± 0.025
UniProt Q9UK58 and related entries,0.9854 ± 0.0082,0.996 ± 0.029,0.97 ± 0.013,1.05 ± 0.086,0.995 ± 0.089,1.1 ± 0.046
SUGT1 (UniProt Q9Y2Z0),1.008 ± 0.0067,1.01 ± 0.0087,0.955 ± 0.014,1.01 ± 0.022,0.983 ± 0.032,0.963 ± 0.044
MED13 (UniProt Q9UHV7),0.983 ± 0.019,0.99 ± 0.029,1.02 ± 0.021,1.08 ± 0.1,1.07 ± 0.13,1.03 ± 0.05
CYB5R1 (UniProt Q9UHQ9),0.99 ± 0.05,0.899 ± 0.084,1 ± 0.048,0.992 ± 0.075,1.05 ± 0.063,0.972 ± 0.044
UniProt Q9ULH0 and related entries,0.996 ± 0.012,1.01 ± 0.046,1.03 ± 0.039,0.989 ± 0.041,0.993 ± 0.016,0.995 ± 0.053
LRWD1 (UniProt Q9UFC0),1.01 ± 0.013,1 ± 0.024,1.02 ± 0.022,0.979 ± 0.024,0.977 ± 0.018,0.958 ± 0.022
UniProt Q9UKM9 and related entries,0.912 ± 0.053,0.922 ± 0.035,0.882 ± 0.08,0.935 ± 0.03,0.889 ± 0.039,0.937 ± 0.11
UniProt Q9UPN6 and related entries,1.03 ± 0.016,1.09 ± 0.06,1.09 ± 0.038,1.08 ± 0.025,1.08 ± 0.046,1.08 ± 0.028
UniProt Q9UK76,1.08 ± 0.088,1.1 ± 0.08,1.03 ± 0.067,0.982 ± 0.092,0.893 ± 0.037,0.973 ± 0.1
SRRM2 (UniProt Q9UQ35),1.08 ± 0.035,1.13 ± 0.074,1.1 ± 0.021,1.05 ± 0.08,1.03 ± 0.042,1.09 ± 0.044
UniProt Q9ULJ7 and related entries,0.925 ± 0.083,0.866 ± 0.015,0.919 ± 0.049,0.923 ± 0.082,0.943 ± 0.077,0.859 ± 0.069

Next records.

Target	NP40-soluble protein abundance (concentration: 1mM)	NP40-soluble protein abundance (concentration: 2mM)	NP40-soluble protein abundance (concentration: 4mM)	NP40-soluble protein abundance (concentration: 6mM)	NP40-soluble protein abundance (concentration: 8mM)	NP40-soluble protein abundance (concentration: 10mM)
YEATS2 (UniProt Q9ULM3)	0.999 ± 0.029	0.984 ± 0.028	1.01 ± 0.06	0.992 ± 0.036	0.987 ± 0.018	0.999 ± 0.021
ARMCX3 (UniProt Q9UH62)	0.9719 ± 0.0081	0.991 ± 0.02	0.9997 ± 0.0099	1.04 ± 0.067	1.05 ± 0.038	1.07 ± 0.033
UniProt Q9ULC4 and related entries	0.97 ± 0.029	0.929 ± 0.029	0.959 ± 0.027	1.01 ± 0.05	1.03 ± 0.018	0.983 ± 0.038
UniProt Q9UL40 and related entries	1.04 ± 0.017	1.06 ± 0.037	1.05 ± 0.036	1.11 ± 0.038	1.11 ± 0.049	1.15 ± 0.092
UniProt Q9ULV4 and related entries	1.07 ± 0.04	1.11 ± 0.056	1.12 ± 0.026	1.26 ± 0.015	1.33 ± 0.018	1.39 ± 0.037
UniProt Q9UIS9 and related entries	1.01 ± 0.013	1.02 ± 0.04	1.01 ± 0.018	0.99007 ± 0.00053	0.9622 ± 0.0053	1 ± 0.032
UniProt Q9UPT9 and related entries	0.953 ± 0.022	0.953 ± 0.035	0.96 ± 0.025	0.922 ± 0.027	0.936 ± 0.021	0.922 ± 0.02
UniProt Q9UBU8 and related entries	1.1 ± 0.028	1.16 ± 0.049	1.16 ± 0.031	1.1 ± 0.023	1.12 ± 0.018	1.14 ± 0.022
UniProt Q9Y3C4 and related entries	1 ± 0.012	0.964 ± 0.026	0.971 ± 0.012	0.976 ± 0.064	0.971 ± 0.031	0.977 ± 0.02
PARP4 (UniProt Q9UKK3)	0.995 ± 0.027	0.974 ± 0.0072	0.957 ± 0.015	0.99 ± 0.033	0.948 ± 0.011	0.954 ± 0.039
UniProt Q9UPZ3 and related entries	0.976 ± 0.036	0.994 ± 0.038	0.958 ± 0.012	0.9965 ± 0.0026	0.983 ± 0.028	0.976 ± 0.066
UniProt Q9UGU0 and related entries	1.02 ± 0.071	1.02 ± 0.059	1.07 ± 0.074	1.14 ± 0.098	1.14 ± 0.082	1.22 ± 0.097
UniProt Q9UHD8 and related entries	1 ± 0.013	1.01 ± 0.031	0.98 ± 0.021	0.985 ± 0.014	0.966 ± 0.025	0.988 ± 0.03
UniProt Q9UH92 and related entries	0.99 ± 0.027	0.997 ± 0.068	1.01 ± 0.048	1.02 ± 0.038	1 ± 0.038	1.03 ± 0.023
CARHSP1 (UniProt Q9Y2V2)	1.03 ± 0.047	1.11 ± 0.11	1.07 ± 0.052	1.06 ± 0.029	1.05 ± 0.042	1.08 ± 0.04
UniProt Q9UJY4 and related entries	1.01 ± 0.015	1.01 ± 0.065	0.973 ± 0.026	0.9748 ± 0.003	0.975 ± 0.029	0.999 ± 0.064
CHORDC1 (UniProt Q9UHD1)	0.996 ± 0.029	1.004 ± 0.0087	0.952 ± 0.036	0.957 ± 0.059	0.924 ± 0.045	0.924 ± 0.055
UniProt Q9UM21	1.02 ± 0.058	0.987 ± 0.034	0.981 ± 0.023	1 ± 0.071	1 ± 0.043	0.991 ± 0.023
UniProt Q9UJU2 and related entries	1.03 ± 0.037	1.07 ± 0.12	0.974 ± 0.085	0.958 ± 0.071	0.958 ± 0.053	1 ± 0.059
SLC5A6 (UniProt Q9Y289)	1.02 ± 0.042	1.01 ± 0.022	1.01 ± 0.049	1 ± 0.042	1.01 ± 0.048	1.02 ± 0.021

Target	NP40-soluble protein abundance (concentration: 1mM)	NP40-soluble protein abundance (concentration: 2mM)	NP40-soluble protein abundance (concentration: 4mM)	NP40-soluble protein abundance (concentration: 6mM)	NP40-soluble protein abundance (concentration: 8mM)	NP40-soluble protein abundance (concentration: 10mM)
UniProt Q9UHP3 and related entries	0.966 ± 0.013	0.997 ± 0.015	0.975 ± 0.026	0.963 ± 0.023	0.964 ± 0.013	0.971 ± 0.024
NENF (UniProt Q9UMX5)	0.971 ± 0.029	1.05 ± 0.06	0.96 ± 0.048	0.945 ± 0.031	0.911 ± 0.017	0.906 ± 0.038
RUVBL2 (UniProt Q9Y230)	1.02 ± 0.067	0.997 ± 0.079	0.979 ± 0.048	1.02 ± 0.063	0.994 ± 0.047	1.01 ± 0.082
UniProt Q9UHC7 and related entries	1.06 ± 0.021	1.07 ± 0.083	1.05 ± 0.023	1.05 ± 0.013	1.02 ± 0.014	1.05 ± 0.029
COPS7A (UniProt Q9UBW8)	0.965 ± 0.024	0.988 ± 0.011	0.961 ± 0.03	0.941 ± 0.0075	0.963 ± 0.019	0.922 ± 0.0095
UniProt Q9UQ13 and related entries	1 ± 0.0038	1.03 ± 0.032	0.988 ± 0.017	0.982 ± 0.015	0.986 ± 0.013	0.981 ± 0.027
ZHX1 (UniProt Q9UKY1)	1.03 ± 0.046	1.06 ± 0.061	1.01 ± 0.039	1.01 ± 0.033	1.05 ± 0.056	1.06 ± 0.081
MAN1B1 (UniProt Q9UKM7)	0.979 ± 0.038	0.945 ± 0.053	1 ± 0.031	1.02 ± 0.045	1.08 ± 0.041	1.084 ± 0.0033
TMED5 (UniProt Q9Y3A6)	0.995 ± 0.025	0.95 ± 0.032	0.944 ± 0.026	0.955 ± 0.035	0.949 ± 0.031	0.929 ± 0.015
UniProt Q9UKT4 and related entries	0.995 ± 0.029	1.03 ± 0.031	1.03 ± 0.072	1 ± 0.061	1.02 ± 0.092	1.02 ± 0.11
UniProt Q9UKA9 and related entries	0.989 ± 0.022	0.98 ± 0.047	1.02 ± 0.04	1.04 ± 0.011	1.01 ± 0.016	1.03 ± 0.019
UniProt Q9UI30	0.961 ± 0.065	0.947 ± 0.029	0.92 ± 0.045	0.929 ± 0.079	0.943 ± 0.052	0.891 ± 0.098
MRPL11 (UniProt Q9Y3B7)	0.909 ± 0.046	1.02 ± 0.048	0.941 ± 0.045	0.986 ± 0.061	0.999 ± 0.082	0.985 ± 0.094
GNPTG (UniProt Q9UJJ9)	0.981 ± 0.015	1.02 ± 0.072	0.949 ± 0.05	0.976 ± 0.038	0.946 ± 0.029	0.973 ± 0.057
UniProt Q9UHL0 and related entries	1.02 ± 0.071	0.933 ± 0.068	1.23 ± 0.1	1.16 ± 0.077	1.03 ± 0.097	0.982 ± 0.073
DDX20 (UniProt Q9UHI6)	0.994 ± 0.095	1 ± 0.061	0.974 ± 0.12	0.977 ± 0.12	0.945 ± 0.097	0.99 ± 0.13
UFC1 (UniProt Q9Y3C8)	0.953 ± 0.062	1.03 ± 0.037	0.951 ± 0.058	0.95 ± 0.06	0.934 ± 0.046	0.886 ± 0.095
UniProt Q9UEE5	1.06 ± 0.025	1.04 ± 0.068	1.03 ± 0.031	1.04 ± 0.035	1.03 ± 0.022	1.041 ± 0.0083
DCTN4 (UniProt Q9UJW0)	0.965 ± 0.017	0.946 ± 0.045	0.945 ± 0.049	0.963 ± 0.053	0.942 ± 0.049	0.954 ± 0.11
UniProt Q9UID6 and related entries	0.981 ± 0.012	0.999 ± 0.041	0.988 ± 0.023	0.999 ± 0.03	1 ± 0.024	0.99 ± 0.024
